# Laboratory results reported in PubChem BioAssay AID248 (DTP/NCI, 2004).
# The list is a part of this screen's results and no random one: it is rich in T/C values a quarter to a half above the control, in often repeated tests (any T/C) and in doses without a T/C. Further doses and runs are listed elsewhere. T/C gives the treated animals as a percentage of the vehicle group. Some doses have a count of surviving animals in place of a T/C: the source files T/C as zero there, which appears to mark a toxic dose or a test without result, not a measured value. Some survivor counts are full or nearly so, which does not show that the dose was tolerated: survival well below the control is almost never listed, so the zero probably covers shortened survival too. Survivors were counted at the toxicity check, usually on the fifth day, unless a day is given; later deaths do not show. Schedules are NCI's codes, read here as Q, the interval in days (D) or hours (H), X, the number of doses. Some entries hold several experiments; their values stand side by side, smallest first. Some schedule codes hold Z or #, which are not explained here. Where survival is the endpoint, this PubChem deposit counts one and a half times the control or more as active, and values a quarter to a half above the control carry no call in these data; other NCI protocols may use other cut-offs. Some T/C values are followed by the survivors on the day toxicity was checked, most often the fifth; without a count, all were alive then.
# System: L1210 leukemia ip in BDF1 mice, survival T/C
# Experiment: NCI In Vivo Anticancer Drug Screen. Data for tumor model L1210 Leukemia (intraperitoneal) in B6D2F1 (BDF1) mice
# Conditions: T/C endpoint: mean survival time, higher T/C = longer survival
# [1] = dose: 100.0 mg/kg/injection, schedule: Q01DX005 (ip), vehicle: saline
# [2] = dose: 200.0 mg/kg/injection, schedule: Q01DX005 (ip), vehicle: saline
# [3] = dose: 200.0 mg/kg/injection, schedule: Q01DX009 (ip), vehicle: saline with Tween-80
# [4] = dose: 400.0 mg/kg/injection, schedule: Q01DX009 (ip), vehicle: saline with Tween-80
# [5] = dose: 400.0 mg/kg/injection, schedule: Q04DX003 (ip), vehicle: saline with Tween-80
compound,measurement,setting,value
O=c1[nH]cc(F)c(=O)n1C1OC(CO)C(O)C1O (stereo not given),T/C,"dose: 0.75 mg/kg/injection, schedule: Q01DX009 (ip), vehicle: saline",141 % of control
same,T/C,"dose: 1.56 mg/kg/injection, schedule: Q01DX005 (ip), vehicle: saline",134 [5 of 6 alive] and 143 % of control
same,T/C,"dose: 3.0 mg/kg/injection, schedule: Q01DX009 (ip), vehicle: saline",134 % of control [5 of 6 alive]
same,T/C,"dose: 3.12 mg/kg/injection, schedule: Q01DX005 (ip), vehicle: saline",144 % of control
same,survivor count,"dose: 12.5 mg/kg/injection, schedule: Q01DX005 (ip), vehicle: saline",6 of 6
same,survivor count,"dose: 25.0 mg/kg/injection, schedule: Q01DX005 (ip), vehicle: saline",6 of 6
same,survivor count,"dose: 50.0 mg/kg/injection, schedule: Q01DX005 (ip), vehicle: saline",6 of 6
same,T/C,[1],125 and 137 % of control
same,survivor count,[1],6 of 6
same,T/C,[2],131 and 148 % of control
same,survivor count,[2],6 of 6
O=C(COc1ccc(Cl)c(Cl)c1)Nc1ccc[n+](Cc2ccc(S(=O)(=O)F)cc2Cl)c1,survivor count,[3],2 of 6
same,survivor count,[4],0 of 6
O=C(O)c1ccc(OCCCOc2ccccc2)c(Cl)c1,survivor count,[5],0 of 6
CCc1c(Nc2ccc(C)cc2)[nH]c(N)nc1=S,survivor count,"dose: 100.0 mg/kg/injection, schedule: Q01DX Z (ip), vehicle: methylcellulose (MC)",6 of 6
Cc1c(CNc2ccc(C(=O)NC(CC(=O)O)CC(=O)O)cc2)ccc2nc(N)nc(N)c12,T/C,"dose: 0.3 mg/kg/injection, schedule: Q01DX009 (ip), vehicle: saline",134 % of control
same,T/C,"dose: 0.4 mg/kg/injection, schedule: Q01DX009 (ip), vehicle: saline",130 % of control
same,T/C,"dose: 2.5 mg/kg/injection, schedule: Q01DX001 (ip), vehicle: other",132 % of control
same,T/C,"dose: 2.5 mg/kg/injection, schedule: Q01DX001 (ip), vehicle: saline",126 % of control
same,survivor count,"dose: 2.5 mg/kg/injection, schedule: Q01DX009 (ip), vehicle: saline",4 of 6 and 6 of 6
same,T/C,"dose: 5.0 mg/kg/injection, schedule: Q01DX001 (ip), vehicle: other",143 % of control
same,T/C,"dose: 5.0 mg/kg/injection, schedule: Q01DX001 (ip), vehicle: saline",140 % of control
same,survivor count,"dose: 5.0 mg/kg/injection, schedule: Q01DX009 (ip), vehicle: saline",5 of 6 and 6 of 6
same,T/C,"dose: 5.0 mg/kg/injection, schedule: Q04DX003 (ip), vehicle: saline",134 % of control
same,survivor count,"dose: 6.7 mg/kg/injection, schedule: Q01DX009 (ip), vehicle: other",6 of 6
same,T/C,"dose: 9.5 mg/kg/injection, schedule: Q01DX001 (ip), vehicle: other",144 % of control
same,survivor count,"dose: 10.0 mg/kg/injection, schedule: Q01DX009 (ip), vehicle: other",5 of 6
same,survivor count,"dose: 15.0 mg/kg/injection, schedule: Q01DX009 (ip), vehicle: other",6 of 6
same,T/C,"dose: 19.0 mg/kg/injection, schedule: Q01DX001 (ip), vehicle: other",146 % of control [4 of 6 alive]
same,survivor count,"dose: 20.0 mg/kg/injection, schedule: Q04DX003 (ip), vehicle: saline",6 of 6
same,survivor count,"dose: 38.0 mg/kg/injection, schedule: Q01DX001 (ip), vehicle: other",3 of 6
same,T/C,"dose: 40.0 mg/kg/injection, schedule: Q01DX001 (ip), vehicle: saline",145 % of control
same,survivor count,"dose: 40.0 mg/kg/injection, schedule: Q04DX003 (ip), vehicle: saline",5 of 6
same,survivor count,"dose: 75.0 mg/kg/injection, schedule: Q01DX001 (ip), vehicle: other",5 of 6
same,survivor count,"dose: 150.0 mg/kg/injection, schedule: Q01DX001 (ip), vehicle: other",3 of 6
same,survivor count,"dose: 300.0 mg/kg/injection, schedule: Q01DX001 (ip), vehicle: other",3 of 6
CN1C(=O)C2(C)CCC1c1ccccc12 (stereo not given),survivor count,"dose: 400.0 mg/kg/injection, schedule: Q01DX001 (ip), vehicle: other",6 of 6
O=C(NC(CS)C(=O)O)OCc1ccccc1 (stereo not given),survivor count,"dose: 200.0 mg/kg/injection, schedule: Q04DX003 (ip), vehicle: Klucel (hydroxypropylcellulose) (HPC)",2 of 6
same,survivor count,"dose: 400.0 mg/kg/injection, schedule: Q04DX003 (ip), vehicle: Klucel (hydroxypropylcellulose) (HPC)",1 of 6
c1ccc2c(c1)nnn1c3ccccc3nc21,survivor count,"dose: 100.0 mg/kg/injection, schedule: Q01DX001 (ip), vehicle: other",6 of 6
CN1CCC(Br)(C(=O)c2ccccc2)CC1,survivor count,"dose: 300.0 mg/kg/injection, schedule: Q01DX001 (ip), vehicle: saline",1 of 6
CCCCOCN1C(=O)NC(c2ccccc2)(c2ccccc2)C1=O,survivor count,[3],2 of 3
O=C(c1ccccc1)C(CC[P+](c1ccccc1)(c1ccccc1)c1ccccc1)(OBr)c1ccccc1 (stereo not given),survivor count,"dose: 100.0 mg/kg/injection, schedule: Q01DX001 (ip), vehicle: saline with Tween-80",1 of 6
same,survivor count,"dose: 200.0 mg/kg/injection, schedule: Q01DX001 (ip), vehicle: saline with Tween-80",0 of 6
same,survivor count,"dose: 400.0 mg/kg/injection, schedule: Q01DX001 (ip), vehicle: saline with Tween-80",0 of 6
O=C(Nc1cccc(F)c1)Nc1ccc(Cl)cc1Cl,survivor count,"dose: 400.0 mg/kg/injection, schedule: Q01DX009 (ip), vehicle: Klucel (hydroxypropylcellulose) (HPC)",1 of 6
NC(CO)C(O)c1ccc(N=Nc2ccc(O)cc2)cc1 (stereo not given),survivor count,"dose: 200.0 mg/kg/injection, schedule: Q04DX003 (ip), vehicle: saline with Tween-80",3 of 6
same,survivor count,[5],0 of 6
CCCCN1C(=O)c2c(Cl)c(Cl)c(Cl)c(Cl)c2C1=O,survivor count,"dose: 100.0 mg/kg/injection, schedule: Q04DX002 (ip), vehicle: other",3 of 3
CN(C)CCCNCC(Cc1ccccc1)c1ccccc1 (stereo not given),survivor count,"dose: 200.0 mg/kg/injection, schedule: Q04DX002 (ip), vehicle: saline",1 of 3
same,survivor count,"dose: 400.0 mg/kg/injection, schedule: Q04DX002 (ip), vehicle: saline",0 of 3
C=COC(=O)NC(CCC(=O)OC)C(=O)O (stereo not given),survivor count,"dose: 400.0 mg/kg/injection, schedule: Q01DX001 (ip), vehicle: saline",0 of 6
COC(=O)c1cc(=O)[nH]c2c1c(=O)n(C)c(=O)n2C,survivor count,"dose: 100.0 mg/kg/injection, schedule: Q01DX009 (ip), vehicle: Klucel (hydroxypropylcellulose) (HPC)",2 of 6
Nc1ccc(/C=C\C(=O)NCc2cccnc2)cc1,survivor count,[3],2 of 6
same,survivor count,[4],0 of 6
